Experimental data published in patent publication US20250134867A1, “METHOD FOR MODULATING LIPID METABOLISM, AMELIORATING NON-ALCOHOLIC FATTY LIVER DISEASE AND METABOLIC SYNDROME BY USING 6-METHOXYBENZOXAZOLINONE” (Taichung District Agricultural Research and Extension …, priority 2023, published 2025).

Test system: HFD-induced obese C57BL/6J mice
Test: Body weight gain, food intake and food efficiency ratio in HFD-induced obese mice
Assay type: in vivo
Settings: 12 weeks, compared to the HFD group
From the text: To determine the effect of CX (Sigma, Inc., USA) on obesity and non-alcoholic fatty liver disease (NAFLD) in vivo, we established an experimental approach using HFD-induced obese C57BL/6J mice. CX was suspended in 0.5% methylcellulose solution for oral administration. The animals used in the examples are described below. 5-week-old male C57BL/6J mice were purchased from The National Laboratory Animal Center, Taipei, Taiwan and were maintained in a temperature-controlled room on a 12-h light-dark cycle. They were housed with four per cage and had free access to food and drinking water. Mice fed with a standard diet and adapted to the environment for 1 week were subsequently divided randomly into five groups. The ND group (n=8) continued on the same diet, whereas the other four groups (n=8 per group) were switched to the HFD (494 kcal/100 g, 45% energy as fat; TestDiet Inc., USA). Among the four HFD groups, three groups started to receive CX at 10 mg/kg/day (CX10 group), CX at 30 mg/kg/day (CX30 group), and epigallocatechin gallate (EGCG) (Sigma, Inc., USA) at 30 mg/kg/day (EGCG30 group) by oral gavage. EGCG was suspended in 0.5% methylcellulose solution for oral administration. Food consumption and weight gain were measured daily and weekly, respectively. After 12 weeks, all mice were sacrificed. […]

SMILES: COc1ccc2[nH]c(=O)oc2c1 [CX, 6-methoxybenzoxazolinone]
- food intake (10 mg/kg/day oral gavage): almost equal food intake
- food intake (30 mg/kg/day oral gavage): almost equal food intake
